For at least one compound, name, drawing or mass did not settle the structure.
Test system: 14-analyte M-DP panel
Assay: Pharmacodynamic M-DP score, 14-analyte panel (SomaLogic SOMAscan), clinical studies in RA
Format: in vivo, human
Settings: 40346527ARA2001, score at week 12, oral 100 mg BID, response at week 12
Excerpt: Serum samples and data from eight interventional clinical studies with seven different active treatments for RA or placebo treatment were obtained and analyzed: sirukumab (anti-IL-6) and placebo treatments in SIRROUND-M (NCT01689532; Takeuchi T, et al. Arthritis Res Ther. 2018 Mar. 7; 20(1): 42), SIRROUND-D (NCT01604343; Takeuchi T, et al. Ann Rheum Dis. 2017 Dec.; 76(12): 2001-2008), and SIRROUND-T (NCT01606761; Aletaha D, et al. Lancet. 2017 Mar. 25; 389(10075): 1206-1217); sirukumab and adalimumab (anti-TNF-alpha) treatments in SIRROUND-H (NCT02019472; Taylor PC, et al. Ann Rheum Dis. 2018 May; 77(5): 658-666); golimumab (anti-TNF-alpha) treatment in GO-FURTHER (NCT00973479; Weinblatt ME, et al. Ann Rheum Dis. […]
Serum samples from baseline (week 0) and the time points indicated in Table 1 were provided for quantification of 1189 serum analytes using the SomaScan v3.1 platform (SomaLogic, Boulder, Colo.; www.somalogic.com), with the exception of RA-MAP TACERA, for which plasma samples were analyzed for 1301 analytes using the SomaScan v3.2 platform. […] Relative fluorescence unit (RFU) data were sequentially normalized for hybridization controls (internal standards per samples), median signal across all samples (assumes same total protein concentration across sample set), and calibration controls (common sample standards across analysis plates). […]

Structure (SMILES): CC1(C)CC=C(c2nc(C3CC(C)(C)OC(C)(C)C3)ccc2NC(=O)c2nc(C#N)c[nH]2)CC1 [JNJ-40346527, reference compound]
- M-DP score mean difference ± SD, Good vs. No: −0.4210.52 log2 (fold/baseline)

Reference: patent US20230243822A1, “MOLECULAR DISEASE PROFILE AND USE THEREOF FOR MONITORING AND TREATING RHEUMATAOID ARTHRITIS” (JANSSEN BIOTECH, INC., priority 2020, published 2023)
